Test results taken from PubChem BioAssay AID540276 (National Center for Advancing Translational Sciences (NCATS), 2011).
Values joined by “and” are separate entries in the source; they are usually repeats but may differ in a detail not shown here. Equal values may be shown once. In all, about 300,000 compounds went through this assay and about 5,400 (1.8%) were called active. Inconclusive means that the source gave no clear call. Such entries were picked first, then a sample of the others. The call rests on the fitted dose curve; tested in HEK293 cells. A potency beside an inconclusive call is a rough fit, not a confirmed value. Some structures have more than one record in an assay (separate samples or runs), and their calls can disagree.
On the % scale 0 is the no-effect control and ±100 the full control effect; potency means the concentration at half of the fitted maximal effect.

Assay: qHTS for inhibitors of binding or entry into cells for Marburg Virus
Conditions: Marburg virus pseudotyped entry inhibition, cell reporter; activity change, negative = inhibition: at 37.8 µM (top of the series) unless noted
For Cc1ccc(CCSc2ccc(C(C)C)cc2)cn1, the “activity change, negative = inhibition” value was inactive: -7.13%. For O=C1CCC2=C(CCCC2=O)N1, the “activity change, negative = inhibition” value was inactive: -20.6%. In the case of O=C(OC1CCCCC1)c1ccc(NC(=O)C2CCCCC2)cc1, the Potency is reported as inconclusive: 35.5 µM [inhibitor, single point]. In the case of O=[N+]([O-])c1ccc(-c2ccc(/C=N/Nc3nc(NCc4ccccc4)nc(N4CCOCC4)n3)o2)cc1, the Potency is reported as active: 10 µM. With CCN(CC)CCNC(=O)c1ccc(N2CCCCC2)c(NS(=O)(=O)c2ccc(C)cc2)c1 the Potency was inconclusive: 12.6 µM [inhibitor, partial curve, poor fit]. With CC1CCCN(C(=O)c2cc3c(=O)n4ccccc4nc3s2)C1 (stereo unspecified) the “activity change, negative = inhibition” value was inactive: -10.9% [at 46.1 µM]. For O=C(CS(=O)(=O)Cc1ccccc1)Nc1ccccc1Cl, the “activity change, negative = inhibition” value was inactive: 4.14%. For OC(COc1ccc(Cl)cc1Cl)Cn1ccnc1 (stereo unspecified), the Potency was inconclusive: 10 µM [inhibitor, partial curve]. In the case of CCN(CC)Cc1cc(CCNC(=O)c2ccc(Cl)cc2)ccc1O, the Potency is reported as inconclusive: 13 µM [inhibitor, single point]. For CCOc1ncccc1C(=O)NNC(=O)c1csc(N2CCOCC2)n1, the Potency was inconclusive: 6.31 µM [activator, single point]. For O=C(COc1ccc(S(=O)(=O)N2CCCC2)cc1)Nc1ccc2c(c1)OCCO2, the Potency was inconclusive: 2.82 µM [activator, partial curve, poor fit]. With Cc1cc(/C=C(\C#N)C(=O)NCC2CCCO2)c(C)n1-c1ccc(Cl)cc1 (stereo unspecified) the Potency was inconclusive: 29.1 µM [inhibitor, single point]. In the case of Cc1ccc(CCNC(=O)c2ccc3c(=O)n(-c4ccc(C)cc4)c(=O)[nH]c3c2)cc1, the Potency is reported as inconclusive: 3.98 µM [activator, single point]. For Cc1c(NC(=S)NC(=O)c2cc3ccccc3o2)c(=O)n(-c2ccccc2)n1C, the Potency was inconclusive: 3.16 µM [activator, partial curve]. With O=C(O)c1ccc(NC(=O)c2ccccc2NC(=O)c2ccccc2Br)cc1 the “activity change, negative = inhibition” value was inactive: 4.67%. With O=C1c2ccccc2C(=O)N1OCc1ccccc1 the Potency was inconclusive: 1.46 µM [inhibitor, partial curve]. In the case of Cc1ccc(NC(=O)CSc2ncnc3ccccc23)cc1S(=O)(=O)N1CCCCC1, the Potency is reported as inconclusive: 15.8 µM [inhibitor, partial curve, poor fit]. With CNC(=S)N/N=C/c1cccc(OCc2ccccc2F)c1 the Potency was inconclusive: 35.5 µM [inhibitor, single point]. In the case of COc1ccc(C(=O)Cn2nc(CNc3ccc(Br)cc3)[n+]3c2CCCCC3)cc1, the Potency is reported as inconclusive: 17.8 µM [inhibitor, single point]. In the case of Cc1ccc(O)c(NC(=O)CSc2n[nH]c(C)c2[N+](=O)[O-])c1, the Potency is reported as inconclusive: 8.91 µM [inhibitor, partial curve]. For Cc1ccc(C)c(NC(=O)Nc2nnc(N(CC(C)C)CC(C)C)s2)c1, the “activity change, negative = inhibition” value was inactive: 21.2% [at 46.1 µM]. With CCCCCC(=O)Nc1ccc2ccccc2c1 the “activity change, negative = inhibition” value was inactive: 4.31%. With COC(=O)N1C(/C=C/C=C/c2ccc(OC)cc2)=Cc2ccccc2C1CC(C)=O (stereo unspecified) the Potency was inconclusive: 5.31 µM [inhibitor, single point]. For Cc1nc2ccccn2c(=O)c1CCN1CCC(C(=O)c2ccc(F)cc2)CC1, the Potency was “inactive and active: 6.31 µM”. For COc1ccc(OCCCC(=O)Nc2ccc3c(c2)OCO3)cc1, the “activity change, negative = inhibition” value was inactive: -16.9%. For COc1ccc(Nc2ncccc2C(=O)Nc2ccccc2)cc1, the “activity change, negative = inhibition” value was inactive: -9.12%. With Cc1cc(C)nc(SCC(=O)Nc2ncc(Cc3ccc(Cl)c(Cl)c3)s2)n1 the Potency was inconclusive: 7.31 µM [inhibitor, single point]. For CC[N+](CC)(CC#Cc1ccccc1)CC#Cc1ccccc1, the Potency was inconclusive: 31.6 µM [inhibitor, partial curve, poor fit]. In the case of Cc1ccc(C(=O)N(CC(C)C)c2nc3ccccc3s2)o1, the “activity change, negative = inhibition” value is reported as inactive: -1.7%. In the case of Cn1c(N)c(C(=O)COC(=O)c2ccc3c(c2)OCCO3)c(=O)n(C)c1=O, the “activity change, negative = inhibition” value is reported as inactive: -3.72% [at 46.1 µM]. With CC(=O)N1CCN(c2ccc(Nc3ncnc4c3oc3ccccc34)cc2)CC1 the Potency was inconclusive: 35.5 µM [inhibitor, single point]. With Cc1ccc(CNC(=O)c2nnn(-c3cccc(C)c3)c2N)cc1 the Potency was “inactive and inconclusive: 10 µM [inhibitor, partial curve, poor fit]”. With Cc1nc2scc(C)n2c(=O)c1S(=O)(=O)Nc1cccc(O)c1 the “activity change, negative = inhibition” value was inactive: 15.5% [at 46.1 µM]. With O=C(CSc1nc(-c2ccccc2)c(-c2ccccc2)[nH]1)Nc1ccc2c(c1)OCO2 the Potency was inconclusive: 29.1 µM [inhibitor, single point]. For CCOC(=O)C1(CCOc2ccccc2)CCN(Cc2cc(OC)c3c(c2)OCO3)CC1, the Potency was active: 2.82 µM. In the case of S=C(NCCc1ccccc1)NCCc1ccccc1, the Potency is reported as inconclusive: 0.398 µM [activator, partial curve, poor fit]. In the case of CCOC(=O)C(C)n1cnc2c(nnn2-c2cccc(OC)c2)c1=O (stereo unspecified), the Potency is reported as inconclusive: 1.12 µM [inhibitor, single point]. For CC1(C)Cc2nc3sc4c(OCc5ccccc5)ncnc4c3cc2CO1, the “activity change, negative = inhibition” value was inactive: 14.6%. With CCCCn1c(N)c(N(CCC(C)C)C(=O)CCN2C(=O)C3CC=CCC3C2=O)c(=O)[nH]c1=O (stereo unspecified) the “activity change, negative = inhibition” value was inactive: -18.9% [at 46.1 µM]. For O=C(NCC(=O)N1CCN(c2ncc(C(F)(F)F)cc2Cl)CC1)c1ccc(Br)o1, the “activity change, negative = inhibition” value was inactive: -29.7%. With COc1cc(NC(=O)c2c3c(nc4ccccc24)CCC3)cc(OC)c1 the Potency was inconclusive: 11.6 µM [inhibitor, partial curve, poor fit]. With O=C(Nc1cnn(Cc2ccc(Cl)cc2Cl)c1)c1cc(-c2cccs2)on1 the Potency was inconclusive: 11.6 µM [inhibitor, partial curve, poor fit]. In the case of Cc1ccc(NC(=O)c2nc(S(C)(=O)=O)ncc2N(Cc2ccco2)Cc2ccccc2F)c(C)c1, the Potency is reported as inconclusive: 0.562 µM [inhibitor, full curve, poor fit]. With CCN(CC)c1ccc(NC(=O)c2cnccn2)cc1S(=O)(=O)Nc1ccc(OC)cc1 the Potency was inconclusive: 14.6 µM [inhibitor, single point]. In the case of c1ccc(C(c2nnnn2Cc2ccco2)N2CCN(c3nc4ccccc4s3)CC2)cc1 (stereo unspecified), the Potency is reported as inconclusive: 17.8 µM [inhibitor, single point]. In the case of Cc1cccc(C(C(=O)NC2CCCC2)N(C(=O)c2csnn2)C2CCCC2)c1 (stereo unspecified), the Potency is reported as inconclusive: 10 µM [inhibitor, partial curve, poor fit]. With O=C(CN1CCN(c2ccccc2)CC1)c1c[nH]c2ccccc12 the Potency was inconclusive: 2.82 µM [activator, single point]. With CC(=O)c1ccc(N2CCN(C(=O)C3CCN(S(=O)(=O)c4ccc(Br)s4)CC3)CC2)cc1 the Potency was inconclusive: 35.5 µM [inhibitor, single point]. In the case of CCOC(=O)Nc1cc(Br)c2c(c1)OCCO2, the “activity change, negative = inhibition” value is reported as inactive: 1.02%. With O=C(c1c(Cl)nc2sccn12)N1CCCc2ccccc21 the Potency was inconclusive: 20.6 µM [inhibitor, single point]. For O=C(CSc1nc2ccccc2c(=O)n1CCCN1CCOCC1)c1c[nH]c2ccccc12, the Potency was inconclusive: 35.5 µM [inhibitor, single point]. With C/C(=N/OC(=O)c1ccc(Br)cc1)c1ccc(C)cc1 the “activity change, negative = inhibition” value was inactive: -8.65%. With Cc1c(N/N=C(\C#N)C(=O)c2ccccc2)c(=O)n(-c2ccccc2)n1C the Potency was active: 11.2 µM. With COCCCNC(=O)c1cn(CC(C)C)c(=O)c2c1c1ccccc1n2C the Potency was inconclusive: 3.55 µM [activator, partial curve, poor fit]. For CC(C)CCN(C(=O)Cc1ccc(Cl)c(Cl)c1)c1c(N)n(Cc2ccccc2)c(=O)[nH]c1=O, the “activity change, negative = inhibition” value was inactive: 1.91%. In the case of CCOc1ccc(OCC)c(NC(=O)c2nnn(Cc3cc(Br)ccc3OC)c2N)c1, the Potency is reported as inconclusive: 6.31 µM [inhibitor, single point]. For Cn1ccc2c(-c3ccc(F)nc3)cc3c(c21)C1CCC3O1 (stereo unspecified), the Potency was inconclusive: 11.2 µM [activator, single point]. With CCc1ccc(NC2=CC(=O)C(=O)c3ccccc32)cc1 the Potency was inconclusive: 10 µM [inhibitor, partial curve]. For Cc1n[nH]c(=O)nc1NCc1ccc(Cl)cc1, the “activity change, negative = inhibition” value was inactive: -3.73% [at 46.1 µM]. With CCCOC1CCCN(C(=O)CCc2nnc(-c3ccc4c(c3)OCO4)o2)C1 (stereo unspecified) the “activity change, negative = inhibition” value was inactive: 24.3%. With CC(=O)N(C)c1ccc(NC(=O)C(Sc2ccccc2)c2ccccc2)cc1 (stereo unspecified) the “activity change, negative = inhibition” value was inactive: -25.1% [at 46.1 µM]. For O=C(N1CCN(c2ncccn2)CC1)C12CC3CC(CC(C3)C1)C2, the “activity change, negative = inhibition” value was inactive: 9.46% [at 46.1 µM]. For COc1ccc(CNC(=O)c2noc3c2CCCCC3)cc1, the “activity change, negative = inhibition” value was inactive: 9.57%. For CC(C)(C)NCCOCCOc1ccccc1-c1ccccc1, the Potency was inconclusive: 11.2 µM [inhibitor, partial curve, poor fit]. With Cc1c(Cl)cccc1NC(=S)N=Nc1c(O)n(CN2CCOCC2)c2ccccc12 the Potency was inconclusive: 2.31 µM [activator, partial curve]. In the case of CCCc1ccc(C(=O)CCC(=O)O)cc1, the “activity change, negative = inhibition” value is reported as inactive: 4.31%. In the case of O=C(Nc1ccc(NC(=O)c2ccccn2)cc1)C(=O)Nc1ccc2c(c1)OCCO2, the Potency is reported as inconclusive: 5.62 µM [inhibitor, single point]. In the case of O=c1cc(-c2ccc3c(c2)OCCO3)oc2ccc(Cl)cc12, the “activity change, negative = inhibition” value is reported as inactive: -0.161%. In the case of Cn1c(=O)c([N+](=O)[O-])c(Oc2ccccc2)c2ccccc21, the Potency is reported as inconclusive: 1.12 µM [inhibitor, full curve, poor fit]. For c1coc(CNc2c3c(nc4ccccc24)CCC3)c1, the Potency was inconclusive: 32.6 µM [inhibitor, single point]. For O=C(NC(=S)Nc1ccc(CN2CCOCC2)cc1)c1ccc2c(c1)OCCO2, the Potency was active: 10 µM.
